Data as given in the supplement of paper PMC12872613.
Where a name gives a salt, the structure may show the parent alone. The list shows a part of the results. No stated cut-off is given here; in the data, active = 0.7 or more and inactive = the rest. Single values are uncertain, as repeats are few or missing.

Tested on: MiaPaCa-2 CLSA-25
Experiment: cell death relative to DMSO vehicle (fraction); higher = more cytotoxic
Conditions: 5 µM; treatment time 48 h; medium cystine 25 µM

**Q.** Which cell death does the source give for COc1cnc(NS(=O)(=O)c2ccc(N)cc2)nc1 [Sulfameter] here?
**A.** Its cell death is inactive: 0.095.

**Q.** For CC(C)(O)CS(=O)(=O)Nc1ccc2c(c1)CCN(C(=O)COc1cccnc1)C2 [Nampt-IN-1], which cell death is on record?
**A.** The cell death was active: 0.72.

**Q.** How did the cell death turn out when COc1cc(C)c(/C=C/C(C)=C/C=C/C(C)=C/C(=O)O)c(C)c1C [Acitretin] was run?
**A.** The cell death was inactive: 0.15.

**Q.** Which cell death does the source give for C[C@@H](C(=O)Nc1ccc(Cl)cc1)[C@H]1CC[C@@H](c2ccnc3ccc(F)cc32)CC1 [Linrodostat] here?
**A.** The cell death was inactive: 0.207.

**Q.** With COc1cc(NC(=O)Nc2cccc(CNC(=O)O[C@H]3CCOC3)c2)ccc1-c1cnco1 [Merimepodib] as the compound, how does the cell death read?
**A.** The cell death was active: 0.708.

**Q.** CCCCCCCCCCCCCCCCOc1nc2ccc(C)cc2c(=O)o1 [Cetilistat] was tested. Which cell death did it give?
**A.** Its cell death is inactive: 0.191.

**Q.** Which cell death does the source give for CCNC(=O)c1noc(-c2cc(C(C)C)c(O)cc2O)c1-c1ccc(CN2CCOCC2)cc1 [Luminespib] here?
**A.** Its cell death is inactive: 0.218.

**Q.** Which cell death does the source give for CN1c2ccccc2C(=O)Nc2cnc(Nc3ccc(N4CCC(O)CC4)cc3)nc21 here?
**A.** Its cell death is inactive: 0.448.

**Q.** How did the cell death turn out when Cc1c(C(=O)NN2CCCCC2)nn(-c2ccc(Cl)cc2Cl)c1-c1ccc(Cl)cc1 [Rimonabant] was run?
**A.** The cell death was inactive: 0.199.

**Q.** For COC(=O)Nc1nc2cc([S+]([O-])c3ccccc3)ccc2[nH]1 (centres undefined) [Oxfendazole], which cell death is on record?
**A.** The cell death was inactive: 0.113.

**Q.** With O=C(O)CSc1nnc(Br)n1-c1ccc(C2CC2)c2ccccc12 [Lesinurad] as the compound, how does the cell death read?
**A.** The cell death was inactive: 0.607.

**Q.** Which cell death does the source give for NCc1ccc(S(N)(=O)=O)cc1 [Mafenide hydrochloride] here?
**A.** The cell death was inactive: 0.473.

**Q.** For C[C@H](CCC(=O)O)[C@H]1CC[C@H]2[C@@H]3[C@H](O)C[C@@H]4C[C@H](O)CC[C@]4(C)[C@H]3C[C@H](O)[C@]12C [Cholic Acid], which cell death is on record?
**A.** Its cell death is inactive: 0.0201.

**Q.** With COC1=C2C[C@@H](C)C[C@H](OC)[C@H](O)[C@@H](C)/C=C(\C)[C@H](OC(N)=O)[C@@H](OC)/C=C\C=C(/C)C(=O)NC(=CC1=O)C2=O [Geldanamycin] as the compound, how does the cell death read?
**A.** The cell death was inactive: 0.275.

**Q.** CCNC(=O)c1noc(-c2cc(Cl)c(O)cc2O)c1-c1ccc(OC)cc1 was tested. Which cell death did it give?
**A.** Its cell death is inactive: 0.112.

**Q.** CC(C)=CCC[C@](C)(O[C@@H]1O[C@H](CO[C@@H]2O[C@H](CO)[C@@H](O)[C@H](O)[C@H]2O)[C@@H](O)[C@H](O)[C@H]1O)[C@H]1CC[C@]2(C)[C@@H]1[C@H](O)C[C@@H]1[C@@]3(C)CC[C@H](O[C@@H]4O[C@H](CO)[C@@H](O)[C@H](O)[C@H]4O)C(C)(C)[C@@H]3CC[C@]12C [Gypenoside XVII] was tested. Which cell death did it give?
**A.** Its cell death is active: 0.826.

**Q.** With O=C(NC1CCN(CCCCC2(C(=O)NCC(F)(F)F)c3ccccc3-c3ccccc32)CC1)c1ccccc1-c1ccc(C(F)(F)F)cc1 [Lomitapide] as the compound, how does the cell death read?
**A.** Its cell death is active: 0.929.

**Q.** C[C@@]12CC[C@@H]3[C@@](CC[C@H]4[C@@]3(C)CCC[C@@]4(C)C(=O)O)(CC1=O)C2 [Isosteviol] was tested. Which cell death did it give?
**A.** The cell death was inactive: 0.0623.

**Q.** How did the cell death turn out when CSc1ccc(C(=O)/C=C/c2cc(C)c(OC(C)(C)C(=O)O)c(C)c2)cc1 [Elafibranor] was run?
**A.** Its cell death is inactive: 0.411.

**Q.** Which cell death does the source give for O=C1CCc2ccccc2C1 [Beta-Tetralone] here?
**A.** The cell death was inactive: 0.451.

**Q.** With O=C[C@H](O)[C@@H](O)[C@H](O)CO (racemic) [DL-Xylose] as the compound, how does the cell death read?
**A.** Its cell death is inactive: 0.049.

**Q.** CCOC(=O)c1ccc(OC(=O)CCCCCNC(=N)N)cc1 [Gabexate mesylate] was tested. Which cell death did it give?
**A.** The cell death was inactive: 0.0725.

**Q.** Which cell death does the source give for CC(C)c1noc(N2CCC(COc3ccc(-c4ccc(S(C)(=O)=O)cc4)nc3)CC2)n1 here?
**A.** The cell death was inactive: 0.394.

**Q.** Which cell death does the source give for CC1=C(/C=C/C(C)=C/C=C/C(C)=C/C=C/C=C(C)/C=C/C=C(C)/C=C/C2=C(C)CCCC2(C)C)C(C)(C)CCC1 [Beta-Carotene] here?
**A.** The cell death was inactive: 0.0187.

**Q.** For CCN(CC)CCOc1ccc2c(c1)C(=O)c1cc(OCCN(CC)CC)ccc1-2 [Tilorone dihydrochloride], which cell death is on record?
**A.** Its cell death is inactive: 0.161.

**Q.** With NS(=O)(=O)c1cc(Cl)c(Cl)c(S(N)(=O)=O)c1 [Dichlorphenamide] as the compound, how does the cell death read?
**A.** Its cell death is active: 0.738.

**Q.** For NCCC(O)(P(=O)(O)O)P(=O)(O)O [Pamidronate disodium salt], which cell death is on record?
**A.** The cell death was inactive: 0.662.

**Q.** For C[C@H](CCC(=O)NCC(=O)O)[C@H]1CC[C@H]2[C@@H]3[C@H](O)C[C@@H]4C[C@H](O)CC[C@]4(C)[C@H]3CC[C@]12C [Glycochenodeoxycholic Acid], which cell death is on record?
**A.** The cell death was inactive: 0.605.

**Q.** For C[C@]12CCC(=O)C=C1CC[C@@H]1[C@@H]2[C@@H](O)C[C@@]2(C)[C@H]1CC[C@]2(O)C(=O)CO [Hydrocortisone], which cell death is on record?
**A.** Its cell death is inactive: 0.165.

**Q.** For CC(O)(P(=O)(O)O)P(=O)(O)O [Etidronate], which cell death is on record?
**A.** Its cell death is inactive: 0.114.

**Q.** For COc1ccc(N2C(=O)/C(=C\c3ccc([N+](=O)[O-])s3)SC2=S)cc1, which cell death is on record?
**A.** The cell death was active: 0.81.

**Q.** For C[C@H](N[C@@H](CCc1ccccc1)C(=O)O)C(=O)N1CCC[C@H]1C(=O)O [Enalaprilat Dihydrate], which cell death is on record?
**A.** Its cell death is inactive: -0.00803.

**Q.** Cc1cn([C@@H]2C[C@@H](O)[C@H](CO)O2)c(=O)[nH]c1=O [Telbivudine] was tested. Which cell death did it give?
**A.** Its cell death is inactive: 0.228.

**Q.** O=C(/C=C/c1ccc2ccc(C(F)(F)F)cc2n1)c1ccncc1 was tested. Which cell death did it give?
**A.** Its cell death is active: 0.915.

**Q.** For C/C1=C2N=C(/C=C3N=C(/C(C)=C4\[N-]C(C(CC(N)=O)C4(C)CCC(=O)NCC(C)OP(=O)([O-])OC4C(CO)OC(n5cnc6cc(C)c(C)cc65)C4O)C4(C)N=C1C(CCC(N)=O)C4(C)CC(N)=O)C(CCC(N)=O)C\3(C)C)C(CCC(N)=O)C/2(C)CC(N)=O.[CH3-].[Co+3] (centres undefined) [Methylcobalamin], which cell death is on record?
**A.** Its cell death is inactive: 0.0969.

**Q.** How did the cell death turn out when Oc1ccc(OC2CCCCO2)cc1 (centres undefined) [Deoxyarbutin] was run?
**A.** The cell death was inactive: 0.0869.

**Q.** O=C1CC(c2c[nH]c3ccc(F)cc23)C(=O)N1 (centres undefined) was tested. Which cell death did it give?
**A.** Its cell death is inactive: 0.137.

**Q.** Cc1ccc(Cl)c(Nc2ccccc2C(=O)O)c1Cl [Meclofenamate Sodium] was tested. Which cell death did it give?
**A.** The cell death was inactive: 0.18.

**Q.** With CSCC[C@H](N)C(=O)O [L-Methionine] as the compound, how does the cell death read?
**A.** Its cell death is inactive: 0.477.
